{"sequences": {"note": "Chains of the proteins cited; added tags and fusions are not shown.", "UniProt Q9EP73": "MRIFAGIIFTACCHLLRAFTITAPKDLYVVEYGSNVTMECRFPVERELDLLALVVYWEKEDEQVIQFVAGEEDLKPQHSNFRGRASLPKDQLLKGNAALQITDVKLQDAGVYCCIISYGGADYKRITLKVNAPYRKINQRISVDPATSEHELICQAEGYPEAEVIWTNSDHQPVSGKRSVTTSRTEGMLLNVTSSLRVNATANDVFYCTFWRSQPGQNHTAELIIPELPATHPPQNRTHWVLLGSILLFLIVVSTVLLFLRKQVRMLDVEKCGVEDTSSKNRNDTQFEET"}, "source": "patent US20190077867A1", "about": "(REYOUNG SUZHOU BIOLOGY SCIENCE AND TECHNOLOGY, published 2019)", "binders": {"B1": {"name": "humanized antibody anti-PD-L1-1 (antibody, V domains shown)", "VH": "EVQLVQSGAEVKKPGASVKVSCKASGYTFTKYIIHWVRQAPGQGLEWMGWFYPGSGNIRYNEKIKGRVTMTRDTSTSTVYMELSSLRSEDTAVYYCARHGELGGGYFFDYWGQGTTVTVSS", "VL": "DIQLTQSPSFLSASVGDRVTITCRASSSVSNIHWYQQKPGKAPKPWIYATSNLASGVPSRFSGSGSGTEFTLTISSLQPEDFATYYCQQWSSNPLTFGQGTKLEIKR", "notes": "Expressed in CHO-KSM4 cells; also called humanized PD-L1 antibody"}}, "key": {"[1]": {"target": "M. fascicularis PD-L1 protein (M. fascicularis) (UniProt G7PSE7)", "assay": "ELISA on coated protein, 0.5 µg/mL antibody, goat anti-human FAB-HRP"}, "[2]": {"target": "Mouse pdl1 (mouse) (UniProt Q9EP73)", "assay": "condition: 0.5 µg/mL (single antibody concentration, from paragraph 145; not printed on the sheet); ELISA, protein coated on the plate, antibody at 0.5 µg/mL, goat anti-human FAB-HRP, OD450"}}, "note": "No constants are given. Whether binding was seen depends on the method and setting. Some entries that bind do so weakly or less than the wild type."}
{"binder": "B1", "values": [{"measurement": "binding", "setting": "[1]", "value": "binds"}, {"measurement": "binding", "setting": "[2]", "value": "no binding"}]}
